# Test results published in PubChem BioAssay AID1117319 (Southern Research Institute, 2015).
# Chains of the proteins cited; added tags and fusions are not shown. Lines headed by an entry give the natural chain unless they say otherwise; changes in a name come on top.
# UniProt P69720: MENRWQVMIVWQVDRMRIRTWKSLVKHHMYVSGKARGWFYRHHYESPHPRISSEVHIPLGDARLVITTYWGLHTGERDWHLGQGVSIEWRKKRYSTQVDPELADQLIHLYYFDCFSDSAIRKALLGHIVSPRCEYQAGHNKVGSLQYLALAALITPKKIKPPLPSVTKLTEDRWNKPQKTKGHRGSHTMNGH
# UniProt P69721: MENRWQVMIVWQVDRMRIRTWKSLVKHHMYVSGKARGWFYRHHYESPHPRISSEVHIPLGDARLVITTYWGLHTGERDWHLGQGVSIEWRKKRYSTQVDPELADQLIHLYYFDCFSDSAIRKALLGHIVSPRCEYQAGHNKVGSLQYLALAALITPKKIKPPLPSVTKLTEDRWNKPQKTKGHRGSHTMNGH
# UniProt P69722: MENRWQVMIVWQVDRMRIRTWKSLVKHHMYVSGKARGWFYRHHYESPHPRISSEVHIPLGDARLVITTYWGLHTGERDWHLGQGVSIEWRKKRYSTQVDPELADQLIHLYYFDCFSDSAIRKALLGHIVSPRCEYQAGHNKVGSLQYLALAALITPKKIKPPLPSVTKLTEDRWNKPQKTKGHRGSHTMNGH
# UniProt P69723: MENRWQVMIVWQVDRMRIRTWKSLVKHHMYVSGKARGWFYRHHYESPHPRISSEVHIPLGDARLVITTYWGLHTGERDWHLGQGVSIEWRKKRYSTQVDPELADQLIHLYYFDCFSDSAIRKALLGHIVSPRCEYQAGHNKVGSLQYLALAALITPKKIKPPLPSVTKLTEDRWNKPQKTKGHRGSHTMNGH
# UniProt Q9HC16: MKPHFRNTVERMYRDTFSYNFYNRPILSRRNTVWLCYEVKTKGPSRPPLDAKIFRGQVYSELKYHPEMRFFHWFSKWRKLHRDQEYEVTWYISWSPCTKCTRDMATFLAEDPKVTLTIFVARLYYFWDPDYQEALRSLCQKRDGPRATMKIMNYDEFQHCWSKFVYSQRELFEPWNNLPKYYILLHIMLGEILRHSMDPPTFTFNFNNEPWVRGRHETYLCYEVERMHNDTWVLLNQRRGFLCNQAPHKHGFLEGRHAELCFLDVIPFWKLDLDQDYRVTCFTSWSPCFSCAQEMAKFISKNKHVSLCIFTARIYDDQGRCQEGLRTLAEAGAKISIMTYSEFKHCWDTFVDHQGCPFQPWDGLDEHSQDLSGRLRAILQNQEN
# The campaign covered roughly 260,000 compounds. About 1,500 (0.58%) were called active. Inconclusive results, whose numbers are uncertain, are shown with a selection of clear calls.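 Rule for the calls: active = inhibition above a set limit at one or more doses, reproduced on every date tested; inconclusive = results disagree between test dates, or hit never tested in dose response; inactive = the rest.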
# Biological target: Virion infectivity factor (Human immunodeficiency virus type 1 group M subtype B (isolate BH10)) + Virion infectivity factor (Human immunodeficiency virus type 1 group M subtype B (isolate BRU/LAI)) + Virion infectivity factor (Human immunodeficiency virus type 1 group M subtype B (isolate PCV12)) + Virion infectivity factor (Human immunodeficiency virus type 1 group M subtype B (isolate HXB2)) + DNA dC->dU-editing enzyme APOBEC-3G (Homo sapiens) (UniProt P69720+P69721+P69722+P69723+Q9HC16)
# Test: inhibitors of Vif binding to APOBEC3G peptide, primary screen, biochemical, TR-FRET, GST-Vif 1-94, biotin-A3G peptide, dose response retest (AID 1117319);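 note: Vif residues 1-94 fused to GST binding biotinylated APOBEC3G peptide 110-148; 0% = full assay without inhibitor and 100% = GST in place of GST-Vif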
# Settings: active compounds read high
row,SMILES,inhibition
1,COC(=O)c1cc(NC(=O)CN(c2cccc(OC)c2)S(=O)(=O)c2ccccc2)ccc1Cl,inconclusive: 40.8%
2,CCn1c(=O)c2c3c(sc2n2c(=S)[nH]nc12)CCC3,inconclusive: 53.8%
3,O=C(NCCN1C(=O)S/C(=C\c2ccc(Cl)cc2)C1=O)c1ccc(F)c(S(=O)(=O)N2CCOCC2)c1,inconclusive: 52.8%
4,Cc1cc(C(=O)CSc2nn3c(=O)c(C(C)(C)C)nnc3s2)c(C)n1-c1ccc(F)cc1,inconclusive: 42.2%
5,Cc1cnn(C(=S)NCc2ccco2)c1,inconclusive: 34.5%
6,O=C(O)c1cccc(-n2cccc2/C=C2\NC(=O)N(Cc3ccc(F)cc3)C2=O)c1,inconclusive: 59.8%
7,COc1cc2c(c(OC)c1)C(c1ccncc1)CC(=O)N2 (stereo not given),inconclusive: 33.9%
8,O=C(O)C1C(C(=O)Nc2ccc(Cl)cc2)C2C=CC1C21CC1 (stereo not given),inconclusive: 42.5%
9,COc1ccccc1N1CCSC1C(N)=O (stereo not given),inconclusive: 39.7%
10,NC(=O)[C@H]1CC2(CC(c3cccc(NC(=O)CC(c4ccccc4)c4ccccc4)c3)=NO2)CN1C(=O)C(c1ccccc1)c1ccccc1 (stereo not given in full),inconclusive: 64.2%
11,COC(=O)C1=C(C)NC(C)=C(C(=O)OC)C1c1ccc(-c2cccc([N+](=O)[O-])c2)o1,inconclusive: 53%
12,O=C(OCC(=O)N1CCN(c2ccccc2)CC1)c1ccccn1,inconclusive: 19.5%
13,CCCC1=[N+](CC(=O)c2ccccc2)CCn2c(C)ccc21,inconclusive: 51.1%
14,COc1c(N2CCN(C(=S)Nc3ccccc3)C(C)C2)c(F)cc2c(=O)c(C(=O)O)cn(C3CC3)c12 (stereo not given),inconclusive: 33.4%
15,CCN(CC(O)Cn1c2ccccc2c2ccccc21)S(=O)(=O)c1ccc(F)cc1 (stereo not given),inconclusive: 34.3%
16,Cn1c(SCC(=O)NC(C)(C)C)nnc1-c1cccc(NC(=O)c2ccccc2F)c1,inconclusive: 37.4%
17,CCC(=O)Nc1ccc(C(=O)c2ccccc2)cc1,inconclusive: 50.9%
18,Cc1ccc(-c2csc(NC(=O)Cn3cnc4c3c(=O)n(C)c(=O)n4C)n2)cc1C,inconclusive: 21.2%
19,CC(C)(C)c1ccc(C(=O)N2CCN(CCNC(=O)C(=O)NCc3ccccc3)CC2)cc1,inconclusive: 44.3%
20,O=C(COC(=O)[C@H](Cc1c[nH]c2ccccc12)NC(=O)c1ccc(Cl)cc1)Nc1ccc2c(c1)OCO2,inconclusive: 36.4%
21,CC(C)(C)NC(=O)COc1ccc(CNc2ccc3[nH]c(=O)[nH]c3c2)cc1,inconclusive: 56.1%
22,COCCn1nnnc1C(C(C)C)N(Cc1ccccc1)Cc1cc2cc(OC)ccc2[nH]c1=O (stereo not given),inconclusive: 38%

# Shown as tab-separated lines: part of the list above
row	SMILES	inhibition
3	O=C(NCCN1C(=O)S/C(=C\c2ccc(Cl)cc2)C1=O)c1ccc(F)c(S(=O)(=O)N2CCOCC2)c1	inconclusive: 52.8%
4	Cc1cc(C(=O)CSc2nn3c(=O)c(C(C)(C)C)nnc3s2)c(C)n1-c1ccc(F)cc1	inconclusive: 42.2%
5	Cc1cnn(C(=S)NCc2ccco2)c1	inconclusive: 34.5%
6	O=C(O)c1cccc(-n2cccc2/C=C2\NC(=O)N(Cc3ccc(F)cc3)C2=O)c1	inconclusive: 59.8%
7	COc1cc2c(c(OC)c1)C(c1ccncc1)CC(=O)N2 (stereo not given)	inconclusive: 33.9%
8	O=C(O)C1C(C(=O)Nc2ccc(Cl)cc2)C2C=CC1C21CC1 (stereo not given)	inconclusive: 42.5%
9	COc1ccccc1N1CCSC1C(N)=O (stereo not given)	inconclusive: 39.7%
10	NC(=O)[C@H]1CC2(CC(c3cccc(NC(=O)CC(c4ccccc4)c4ccccc4)c3)=NO2)CN1C(=O)C(c1ccccc1)c1ccccc1 (stereo not given in full)	inconclusive: 64.2%
11	COC(=O)C1=C(C)NC(C)=C(C(=O)OC)C1c1ccc(-c2cccc([N+](=O)[O-])c2)o1	inconclusive: 53%
12	O=C(OCC(=O)N1CCN(c2ccccc2)CC1)c1ccccn1	inconclusive: 19.5%
13	CCCC1=[N+](CC(=O)c2ccccc2)CCn2c(C)ccc21	inconclusive: 51.1%
14	COc1c(N2CCN(C(=S)Nc3ccccc3)C(C)C2)c(F)cc2c(=O)c(C(=O)O)cn(C3CC3)c12 (stereo not given)	inconclusive: 33.4%
15	CCN(CC(O)Cn1c2ccccc2c2ccccc21)S(=O)(=O)c1ccc(F)cc1 (stereo not given)	inconclusive: 34.3%
16	Cn1c(SCC(=O)NC(C)(C)C)nnc1-c1cccc(NC(=O)c2ccccc2F)c1	inconclusive: 37.4%
17	CCC(=O)Nc1ccc(C(=O)c2ccccc2)cc1	inconclusive: 50.9%
18	Cc1ccc(-c2csc(NC(=O)Cn3cnc4c3c(=O)n(C)c(=O)n4C)n2)cc1C	inconclusive: 21.2%
19	CC(C)(C)c1ccc(C(=O)N2CCN(CCNC(=O)C(=O)NCc3ccccc3)CC2)cc1	inconclusive: 44.3%
20	O=C(COC(=O)[C@H](Cc1c[nH]c2ccccc12)NC(=O)c1ccc(Cl)cc1)Nc1ccc2c(c1)OCO2	inconclusive: 36.4%
21	CC(C)(C)NC(=O)COc1ccc(CNc2ccc3[nH]c(=O)[nH]c3c2)cc1	inconclusive: 56.1%

# The results go on.

row,SMILES,inhibition
1,Cc1ccc(C(=O)N2CCCC2)cc1S(=O)(=O)Nc1cccc(C)c1C,inconclusive: 33.3%
2,COc1cccc(-c2n[nH]c(=S)n2Cc2ccco2)c1,inconclusive: 37%
3,CCCCn1c(O)c(/C=C2\C=NN=C2c2ccccc2)sc1=S,inconclusive: 56.2%
4,COC(=O)c1ccc(COc2ccccc2/C=C(\C#N)C(=O)Nc2c(C)cccc2C)cc1,inactive: -2.89%
5,COc1ccc(C=CC(=O)c2cc(O)ccc2O)cc1,inactive: -0.99%
6,O=C(c1ccccc1)c1ccc2c(c1)OCCOCCOCCOCCO2,inconclusive: 47.5%
7,CN(CC(=O)NCc1ccc2c(c1)OCO2)S(=O)(=O)c1ccc(Br)s1,inconclusive: 42.7%
8,CC(C)CNC(=O)c1ccc(C2SCC(=O)N2Cc2ccccc2)cc1 (stereo not given),inconclusive: 43.8%
9,COc1ccc(N2CCN(CC(=O)Nc3ccc(SC(F)F)cc3)CC2)cc1,inactive: 27.3%
10,Cc1nc2ccccc2n1CCN1CCOCC1,inactive: -1%
11,CCCCCc1ccc(S(=O)(=O)Nc2cc(C)ccn2)cc1,inconclusive: 39.6%
12,COc1ccc(/C=C2\SC(=O)N=C2N)cc1OC,inconclusive: 37.2%
13,O=C(CCCc1ccccc1)N1CCc2ccccc21,inconclusive: 37%
14,C=CCOc1ccc(C2NC(=S)NC(c3ccccc3)=C2C(C)=O)cc1OC (stereo not given),inconclusive: 36.4%
15,CCOC(=O)C1CCN(C(=O)c2cc3c(=O)n4ccccc4nc3n2C)CC1,inconclusive: 44.2%
16,c1ccc(-c2oc3ncnc(NCCN4CCOCC4)c3c2-c2ccccc2)cc1,inconclusive: 40.4%
17,COc1ccc(NC(=O)C2(c3ccccc3)CCCC2)cc1,inconclusive: 62.8%
18,CC(=O)OCN(C#N)c1nc(N(C)C)nc(N(C)C)n1,inconclusive: 33.3%
19,CCOc1ccc(-n2c(=S)sc3c(=O)[nH]c(SCC(=O)NC(C)CC)nc32)cc1 (stereo not given),inconclusive: 41.2%
20,O=C(Nc1cccc(S(=O)(=O)N2CCCCC2)c1)C1CCCN1S(=O)(=O)c1ccccc1F (stereo not given),inconclusive: 35.4%
21,O=C(CN(Cc1ccccc1)S(=O)(=O)c1ccc2c(c1)OCCO2)Nc1ccc2c(c1)OCCO2,inconclusive: 35.5%
22,Cc1ccc(-c2csc(NC(=O)/C=C/c3ccco3)c2C(=O)O)cc1,inconclusive: 56.9%

row,SMILES,inhibition
1,O=C(CNC(=O)/C(=C/c1ccccc1)NC(=O)c1ccc(Br)cc1)OCc1ccccc1,inconclusive: 49.8%
2,CCOC(=O)/C(=N/Nc1ccc(OC)cc1)N1CCCc2ccccc21,inconclusive: 35.6%
3,N#CC1CCN(c2ncccc2[N+](=O)[O-])CC1,inconclusive: 35.3%
4,CC(C)Oc1ccc2c(c1)OC(c1ccccc1)(C(F)(F)F)NC2=O (stereo not given),inconclusive: 34.9%
5,Nc1nc(Cl)nc2c1ncn2[C@H]1C[C@H](O)[C@@H](CO)O1,inconclusive: 44.6%
6,CC1CCN(S(=O)(=O)c2cccc(C(=O)N(C)C3CCS(=O)(=O)C3)c2)CC1 (stereo not given),inconclusive: 38.2%
7,CC(C)(C)C1CCc2c(sc(N)c2C(N)=O)C1 (stereo not given),inconclusive: 39.9%
8,Cc1ccc(-c2cc(C(=O)OCC(=O)N(C)C3CCS(=O)(=O)C3)c3ccccc3n2)c(C)c1 (stereo not given),inactive: 5.39%
9,CC[C@@H](C(=O)n1nc(C)cc1C)[C@H](NS(=O)(=O)c1ccc(C)cc1)c1ccccc1,inactive: -0.92%
10,CCOC(=O)N1CCN(C(=O)C(=O)NN)CC1,inconclusive: 45.7%
11,Cc1nnc(Nc2ccc(O)cc2)[nH]c1=O,inconclusive: 41.8%
12,COc1ccc(C)cc1S(=O)(=O)NCC(c1ccco1)N1CCc2ccccc2C1 (stereo not given),inactive: -3.21%
13,Cc1ccccc1-n1c(Cn2c(=O)sc3ccccc32)nnc1SC(C)C,inconclusive: 36.7%
14,C=CCNC(=O)C(C)N1C(=O)c2ccccc2C1=O (stereo not given),inconclusive: 53.8%
15,Cc1ccc2oc(=O)n(Cc3ccc(OC(C)C)cc3)c2c1,inconclusive: 42.1%
16,COCCNC(=O)C(NC(=O)C1CCCCC1)C(C)C (stereo not given),inconclusive: 43.2%
17,COc1ccc(NC(=O)c2ccco2)cc1NC(=O)c1cccc(OC(C)C)c1,inconclusive: 25.2%
18,Cc1[nH]nc2nc3c(c(OC(=O)c4ccccc4)c12)c(=O)n(C)c(=O)n3C,inconclusive: 41.3%
19,Cc1c(C)[n+](=O)c2c(n1[O-])CCC2,inconclusive: 35.4%
20,Cn1c(=O)c2c(n(Cc3ccccc3)c1=O)NC(=O)C2CC(=O)N1CCc2ccccc2C1 (stereo not given),inconclusive: 52.4%
21,CCc1nn(CC(=O)NCCN2CCN(C)CC2)c(=O)c2cc3occc3n12,inconclusive: 45.8%
22,Nc1ccc(C(=O)Nc2ccc3c(O)cc(S(=O)(=O)O)cc3c2)cc1,inactive: 29.1%

row,SMILES,inhibition
1,Cc1ccc(C)n1-c1ccc2c(c1)COC2=O,inconclusive: 39.5%
2,O=C(O)c1cccc(-n2cccc2/C=N/O)c1,inconclusive: 43%
3,CCOC(=O)C1=C(C)N(C[C@@H]2CC[C@@H](Cc3ccc(-c4ccccc4)cc3)O2)C(=O)NC1c1ccc(SCc2ccco2)c([N+](=O)[O-])c1 (stereo not given in full),inactive: 30.7%
4,CCOC(=O)COc1cc(=O)n(CC)c2ccccc12,inconclusive: 48.3%
5,Cc1ccc(S(=O)(=O)N2CCCN(S(=O)(=O)c3ccc(C)c(C)c3)CC2)cc1C,inconclusive: 40.7%
6,O=C(CCCn1nnc2ccccc2c1=O)N[C@H](C(=O)O)c1ccccc1,inconclusive: 39.7%
7,CC1CC(C)CN(C(=O)CSc2nc(Cc3cccs3)nc3ccccc23)C1 (stereo not given),inconclusive: 43%
8,CCCCNC(=S)N(C)/N=C/c1c(F)cccc1F,inconclusive: 35.7%
9,O=C(O)c1cc(O)c2c(c1)C(=O)c1cccc(O)c1C2=O,inconclusive: 47.2%
10,O=C1C=CC(=O)N1c1ccc(OC(F)F)cc1,inconclusive: 40.2%
11,O=C(NC1CCCCC1)N(CCN1CCOCC1)Cc1cc2cc3c(cc2[nH]c1=O)OCCO3,inconclusive: 45.8%
12,CCOC(=O)/C=C1\SCC(=O)N1CC(=O)NC(C)c1ccccc1 (stereo not given),inactive: -4.1%
13,O=C(Nc1nnc(SCC(=O)N2CCCCC2)s1)C1CCCCC1,inconclusive: 33.8%
14,Cc1ccc(-n2c(=O)cc(N3CCC(C)CC3)[nH]c2=O)cc1,inconclusive: 39.8%
15,NC(=O)C1(NC(=O)[C@@H]2CC3(CC(c4cccc(NC(=O)[C@@H]5CCC(=O)N5)c4)=NO3)CN2C(=O)Cc2ccc(C(F)(F)F)cc2)CC1 (stereo not given in full),inconclusive: 46.8%
16,O=c1[nH]c(=S)[nH]cc1Oc1ccc(Cl)cc1Cl,inconclusive: 33.2%
17,O=C1CN=C(Nc2ccccc2Cl)N1Cc1ccc2c(c1)OCO2,inconclusive: 46.5%
18,O=C(COC(=O)/C=C/c1cccc(Br)c1)NCCC1=CCCCC1,inactive: 12.4%
19,COc1cc(CNC(C)(C)CO)cc(Br)c1OCc1ccccc1,inactive: 14.2%
